Several values for one entry are separate records, joined by “and”; a condition that tells them apart may be missing. Identical values can stand only once. Out of some 220,000 compounds screened, about 770 (0.35%) were called active. Inconclusive means that the source gave no clear call. Such entries were picked first, then a sample of the others. Cut-off read from the data, not from the text of the source: active = binding response below about 49% or above about 150%; inconclusive = no clear call, values can overlap the other calls; inactive = in between.
Target: Guanine nucleotide-binding protein G(o) subunit alpha (Homo sapiens) (UniProt P09471)
Test: compounds changing RGS7 association with Galphao – biochemical, multiplexed bead flow cytometry, primary screen (AID 1439);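 note: fluorescent Galphao held in activated GDP-AlF4 state binding bead-coupled RGS7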
Conditions: at 10 µM, actives lie on both sides

Sequences of proteins named here, by UniProt entry; tags and fusion partners are left off.
UniProt P09471, whole entry, looked up: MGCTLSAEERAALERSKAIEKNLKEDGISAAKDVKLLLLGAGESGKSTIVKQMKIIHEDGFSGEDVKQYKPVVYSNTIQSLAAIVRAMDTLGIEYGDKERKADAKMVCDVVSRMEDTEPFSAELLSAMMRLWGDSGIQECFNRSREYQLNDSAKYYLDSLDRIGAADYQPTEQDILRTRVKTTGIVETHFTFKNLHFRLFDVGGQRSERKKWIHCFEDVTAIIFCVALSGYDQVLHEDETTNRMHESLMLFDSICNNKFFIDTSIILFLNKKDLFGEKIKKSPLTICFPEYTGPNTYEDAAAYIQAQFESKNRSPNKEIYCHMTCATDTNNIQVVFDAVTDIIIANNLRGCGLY

Structure (SMILES) | binding response (% of control)
COC(=O)NC(=C(Cl)Cl)P(=O)(c1ccccc1)c1ccccc1 | inconclusive: 81%
c1ccc(C2CN3CCC2CC3)cc1 (stereo not drawn) | inconclusive: 95.8%
Cc1cc(OC(=O)N(C)C)nc(-c2ccc(C)c(Cl)c2)n1 | inconclusive: 111%
O=C1NC(=O)C(=Cc2ccc(-c3ccccc3[N+](=O)[O-])o2)C(=O)N1 | inconclusive: 75.6%
c1ccc2nc(OCCN3CC3)ccc2c1 | inconclusive: 107%
CC(C)CNP(=S)(c1ccccc1)C(C)(C)C (stereo not drawn) | inconclusive: 97.5%
CN1C(=O)C(=Cc2cccnc2)C(=O)N(C)C1=O | inconclusive: -301%
Cc1cccc(NC(=O)C(C)N2CC=C(c3ccccc3)CC2)c1 (stereo not drawn) | inconclusive: 123%
CCn1c(=O)n(CC)c2cc([N+](=O)[O-])c(N3CCNCC3)cc21 | inactive: 107%
COc1cc(CN=Cc2c(O)n(C(C)(C)C)c(=O)[nH]c2=O)cc(OC)c1 | inconclusive: 69.3%
C/C(=N\N1CCCCCC1)c1c(O)n(-c2ccccc2C)c(=O)[nH]c1=O | inconclusive: -89.5%
CCn1c(O)c(N=Nc2ccc(S(=O)(=O)N3CCOCC3)cc2)c(=O)n(CC)c1=S | inconclusive: 79.3%
Cc1nnc2ccc(N3CCN(C)CC3)nn12 | inactive: 111%
CCC(=NCCc1ccccc1)c1c(O)[nH]c(=O)[nH]c1=O | inconclusive: 134%
O=c1[nH]c(=S)n(CCC2=CCCCC2)c(O)c1/C=N/N1CCOCC1 | inconclusive: 85.1%
CC(C)N1C(=O)CC2(CC[N+](C)(CCOC(=O)C(O)(c3ccccc3)c3ccccc3)CC2)C1=O (stereo not drawn) | active: 26.7%
C=CCn1c(O)c(C(C)=NCc2ccc3c(c2)OCO3)c(=O)[nH]c1=O | inconclusive: 40.3%
Cc1nn(Cc2ccc(Cl)cc2Cl)c(Cl)c1C(=O)NC1CCCc2ccccc21 (stereo not drawn) | inactive: 97.7%
CCOC(=O)c1ccc(N=C(C)c2c(O)[nH]c(=O)[nH]c2=O)cc1 | inconclusive: 110%
CN1CCN2c3ccc(N)cc3CC3(C(=O)NC(=O)NC3=O)C2C1 (stereo not drawn) | inconclusive: 102%
NNC(=O)CN1C(=O)CN=C(c2ccccc2)c2cc(Br)ccc21 | inconclusive: 120%
S=P(NC1CCCCC1)(N1CC1)N1CC1 | inconclusive: 83.8%
O=C(O)C1CN2CCC1CC2 (stereo not drawn) | inactive: 99.7%
CCOP(=O)(OCC)c1ccc(OP(=O)(c2cccc([N+](=O)[O-])c2)c2cccc([N+](=O)[O-])c2)cc1 | inconclusive: -351%

Structure (SMILES) | binding response (% of control)
Cc1ccccc1-n1c(O)c(C(c2ccncc2)c2c(O)n(-c3ccccc3C)c(=O)[nH]c2=O)c(=O)[nH]c1=O | inconclusive: 64.4% and inconclusive: 86.3%
CCCc1nnc(NC(=O)CCC(=O)N2CCC3(CC2)OCCO3)s1 | inconclusive: 98.8%
COc1ccc(-n2c(-c3ccccc3)nc3ccccc3c2=O)cc1 | inconclusive: 98.5%
N#CCN1CCN(c2ccc(C(F)(F)F)cc2)CC1 | inactive: 102%
CCC(CC)NC1CCCCC1OC (stereo not drawn) | inactive: 97.3%
COc1ccc(CNC(=O)C(NC(C)=O)C(C)C)cc1OC (stereo not drawn) | inconclusive: 97.8%
N=C1c2ccccc2CN1c1ccc(F)c([N+](=O)[O-])c1 | inconclusive: 97.6%
COC(=O)CC1NC2CCCCC2NC1=O (stereo not drawn) | inactive: 96.7%
CCn1c(O)c(C=NCCN2CCOCC2)c(=O)n(CC)c1=S | inconclusive: 107%
Cc1cc(/C=C2\C(=O)NC(=O)N(Cc3ccco3)C2=O)c(C)n1-c1ccc(C(=O)O)cc1 | inconclusive: 93.5%
CCOP(=O)(OCC)c1cc(CC)ccc1O | inconclusive: 89.8%
COc1cccc(C2(O)CCSCC2CN(C)C)c1 (stereo not drawn) | inactive: 108%
CCOP(=O)(Cc1ccc(C(=O)CC)o1)OCC | inconclusive: 97.6%
COc1cc(C)cc(CN2CC=C(c3ccccc3)CC2)c1O | inconclusive: 94.6%
Cn1nnc(CC[N+](C)(C)C)n1 | inconclusive: 107%
O=C(c1cccnc1)C1CCCN(Cc2nc(-c3cnccn3)no2)C1 (stereo not drawn) | inconclusive: 104%
CN1CCN(c2nc(N)cc(=O)[nH]2)CC1 | inconclusive: 110%
CN(C)c1ccc(/C=C2\C(=O)NC(=O)N(CCc3ccc(F)cc3)C2=O)cc1 | inconclusive: 104%
O=c1[nH]c(=O)n(Cc2ccco2)c(O)c1C=NC1CCN(Cc2ccccc2)CC1 | inconclusive: 118%
O=C1Nc2ccccc2C1Cc1nc2ccccc2c(=O)n1-c1ccccc1 (stereo not drawn) | inconclusive: 69.1%
C[N+]1(C)C2CCC1CC(OC(=O)c1ccco1)C2 (stereo not drawn) | inconclusive: 122%
COc1ccc(OC)c(CN2CCCC(C(=O)c3sccc3C)C2)c1 (stereo not drawn) | inconclusive: 329%
Cc1ccc(OCC(=O)N2CCN(Cc3cccnc3)CC2)cc1 | inconclusive: 121%
O=C(c1cccc2ccccc12)C1CCCN(Cc2ccon2)C1 (stereo not drawn) | inconclusive: 73.2%

Structure (SMILES) | binding response (% of control)
Cc1cc(/C=C2/C(=O)NC(=O)N(c3ccc(Br)cc3)C2=O)c(C)n1C | inconclusive: 283%
C=CCn1c(O)c(C(CC)=NCc2ccco2)c(=O)[nH]c1=O | inconclusive: 110%
Cc1nnc2n1-c1ccc(Cl)cc1C(c1ccccc1)=NC2 | inactive: 101%
CCn1cc(C(=O)NCc2ccccc2)c2ccccc21 | inconclusive: 73.2%
COc1cc2c(cc1OC)[C@@H]1C(=O)c3ccc4c(c3O[C@@H]1CO2)C[C@H](C(C)C)O4 | inconclusive: 66.8%
CN1CCC2(CC1)NC(=O)c1ccccc1N2 | inconclusive: 76.5%
O=P(O)(O)C12CC3CC(CC(C3)C1)C2 | inactive: 103%
CCC(=NCCN1CCCCC1)c1c(O)n(C)c(=O)n(C)c1=O | inactive: 104%
CCCCCCN1CCN(c2ccc(Cl)cc2)CC1 | inconclusive: 104%
O=C1NC(=O)N(C2CCCCC2)C(=O)C1C1c2ccccc2C(=O)N1Cc1ccccc1 (stereo not drawn) | inactive: 107%
Cn1c(O)c(/C=N/NC(=O)c2ccncc2)c(=O)[nH]c1=S | inconclusive: 111%
C=CCn1c(O)c(C(C)=O)c(=O)[nH]c1=O (tested in a mixture with another compound) | inconclusive: 84.8%
Cc1ccc2c(c1)C1CN(C)CCC1N2C(=O)c1cccnc1Cl (stereo not drawn) | inconclusive: 116%
CC(C)CN1CCN(Cc2ccc(F)cc2Cl)CC1CCO (stereo not drawn) | inconclusive: 81.1%
Cc1ccccc1NC(=O)c1cc(-c2ccccc2)n(CCCN2CCOCC2)c1C | inconclusive: 132%
CCOC(=O)C1(c2ccccc2)CCN(CC(=O)Nc2ccc(C)cc2)CC1 | inconclusive: 83%
C=CCn1c(O)c(C(C)=NCC2CCCO2)c(=O)[nH]c1=O (stereo not drawn) | inconclusive: 112%
CC(=NCCCN1CCOCC1)c1c(O)n(Cc2ccccc2)c(=O)[nH]c1=O | inactive: 94.2%
O=C(Nc1ccccc1Cl)OC1CN2CCC1CC2 (stereo not drawn) | inconclusive: 106%
C1CCC2S[C@H]3CCCCC3NC2C1 (stereo partly drawn) | inconclusive: 118%
Cc1ccn2nc(S(=O)(=O)Nc3c(F)cccc3F)nc2n1 | inactive: 98.4%
N#Cc1c(N2CCNCC2)nc(-c2ccco2)c2c1CCCC2 | inconclusive: 120%
CC(C(=O)c1c[nH]c2ccccc12)N1CCOCC1 (stereo not drawn) | inconclusive: 79.8%
CC1(C)N2CC3([N+](=O)[O-])CN1CC([N+](=O)[O-])(C2)C3 | inconclusive: 106%

Structure (SMILES) | binding response (% of control)
O=c1[nH]c(=O)n(Cc2ccco2)c(O)c1C=NCCN1CCNCC1 | inconclusive: -175%
Cc1ccc(-n2c(O)c(C=NCc3ccccn3)c(=O)[nH]c2=S)cc1 | inconclusive: 102%
COc1cc(C(=O)N/N=C/C23CC[C@@H](O)CC2(O)CC[C@@H]2[C@@H]3CCC3(C)C(C4=CC(=O)OC4)CCC23O)ccc1O (stereo partly drawn) | inconclusive: 91.9%
O=C(Nc1ccccc1)c1cccn(Cc2ccccc2)c1=O | inconclusive: 113%
O=c1c2ccccc2nc(Cc2ccccc2)n1-c1ccc(O)cc1 | inactive: 103%
Cc1ccccc1-n1c(O)c(C=Nc2ccc(N(C)C)cc2)c(=O)[nH]c1=O | inactive: 96.7%
Nc1cncc(C(=O)O)c1 | inconclusive: 88.5% and inconclusive: 79.2%
O=C(CCl)Nc1nccs1 | inconclusive: 91.7%
N#CC12CNCC1CN=N2 (stereo not drawn) | inconclusive: -290%
CCn1cc(C(=O)N2CCCCC2)c2ccccc21 | inconclusive: 111%
CC(O)(CS(=O)(=O)c1ccc(F)cc1)C(=O)Nc1ccc(C#N)c(C(F)(F)F)c1 (stereo not drawn) | inactive: 99.7%
O=C(NC12CC3CC(CC(C3)C1)C2)OC1CN2CCC1CC2 (stereo not drawn) | inconclusive: 463%
COc1ccc(CCn2c(O)c(C=Nc3ccc(NC(C)=O)cc3)c(=O)[nH]c2=O)cc1OC | inconclusive: 97.3%
O=c1[nH]c(=O)n(CCc2ccc(F)cc2)c(O)c1/C=N/N1CCCCC1 | inconclusive: 105%
COc1cc(C=C2C(=O)NC(=O)NC2=O)cc(OC)c1OC | inconclusive: 47.4%
O=C(Nc1nccs1)c1c(O)c2c(n(Cc3ccco3)c1=O)CCCC2 | inconclusive: 71.6%
CCCOC(=O)Nc1ccc([As](=O)(O)O)cc1NC(=O)OCCC | inconclusive: 101%
c1cnc2c(c1)ccc1ncccc12 | inconclusive: 114%
CNC(=O)Oc1cccc2ccccc12 | inconclusive: 46.8%
N#CC(c1ccccc1)N1CCOCC1 (stereo not drawn) | inconclusive: 130%
c1ccc2c3c([nH]c2c1)C1(CCNCC1)NCC3 | inconclusive: 527%

From PubChem BioAssay AID1439 (NMMLSC, 2008)
